The values that follow come from the supplement of paper PMC8975748.

Counter-ions that a name gives are not always drawn. ± gives the standard deviation of the averaged measurements. Some of the results follow. These are raw signals, not scaled to a control.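 The yeast community starts from one strain carrying four plasmids, each with an amino-acid or uracil synthesis gene and a fluorescent protein. Random plasmid loss creates mixed prototroph and auxotroph subpopulations. Cells were fixed and counted by automated confocal fluorescence imaging, and DMSO-treated wells served as the vehicle reference.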

The assay deals with Saccharomyces cerevisiae BY4741 SeMeCo community. The assay is described as follows: imaged cell count per well (cells); higher = more cells. The following applies: 10 µM; 24 h; SM minimal medium. The method, then:
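Same SeMeCo high-content imaging drug screen: Selleck FDA-approved drugs at 10 µM, 24 h in SM medium, 384-well plates, 3 replicates.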
`CCCCCCCCCC(=O)N[C@@H](Cc1c[nH]c2ccccc12)C(=O)N[C@H](CC(N)=O)C(=O)N[C@@H](CC(=O)O)C(=O)N[C@@H]1C(=O)NCC(=O)N[C@@H](CCCN)C(=O)N[C@@H](CC(=O)O)C(=O)N[C@H](C)C(=O)N[C@@H](CC(=O)O)C(=O)NCC(=O)N[C@H](CO)C(=O)N[C@@H]([C@H](C)CC(=O)O)C(=O)N[C@@H](CC(=O)c2ccccc2N)C(=O)O[C@@H]1C` [Daptomycin]: the “imaged cell count per well” value worked out at 33100 ± 5400.
With `N[C@H]1CONC1=O` [L-Cycloserine], the “imaged cell count per well” value worked out at 12600 ± 2200.
As to `O=C(Nc1ccc(Oc2ccc(Cl)cc2)c(Cl)c1)c1cc(I)cc(I)c1O` [Rafoxanide], the “imaged cell count per well” value came to 30800 ± 2500.
Under `Nc1ccc(S(=O)(=O)Nc2nccs2)cc1` [Sulfathiazole] stands 26300 ± 5400; under `CC[C@H](C)C(=O)O[C@H]1C[C@H](O)C=C2C=C[C@H](C)[C@H](CC[C@@H](O)C[C@@H](O)CC(=O)O)[C@H]21` [Pravastatin sodium], 15900 ± 8900.
With `CN(C)CCN1C(=O)c2cccc3cc(N)cc(c23)C1=O` [Amonafide], the “imaged cell count per well” value was found to be 28000 ± 3700.
As for `CN1CCN(CCCN2c3ccccc3Sc3ccc(Cl)cc32)CC1` [Prochlorperazine dimaleate salt], the “imaged cell count per well” value was determined as 21500 ± 6100.
Under `Cc1ncc([N+](=O)[O-])n1CCOC(=O)c1ccccc1` [Metronidazole Benzoate] stands 26200 ± 3000; under `COc1cc(C(C)=O)ccc1OCCCN1CCC(c2noc3cc(F)ccc23)CC1` [Iloperidone], 22200 ± 4300.
Turning to `COc1ccc2[nH]c([S@@+]([O-])Cc3ncc(C)c(OC)c3C)nc2c1` [NEXIUM (esomeprazole magnesium)], the “imaged cell count per well” value was 20900 ± 2900.
With `C/C=C1\[C@H]2C=C(C)C[C@]1(N)c1ccc(=O)[nH]c1C2` [(-)-Huperzine A (HupA)] the figure was 31100 ± 6800.
For `CN[C@@H]1[C@@H](O[C@H]2O[C@H](CO)[C@@H](N)[C@H](O)[C@H]2O)OC2C[C@@H](N)[C@@H](O[C@H]3[C@H](O)[C@@H](O)[C@H](N)C[C@@H]3N)OC2[C@@H]1O` (stereo not given in full) [Apramycin Sulfate], the “imaged cell count per well” value worked out at 22500 ± 9600.
Regarding `O=C1c2cccc3c2[C@H](CCC3)CN1[C@@H]1CN2CCC1CC2` [Palonosetron], the “imaged cell count per well” value worked out at 27200 ± 6200.
`O=C(c1ccc(OCCN2CCCCC2)cc1)c1c(-c2ccc(O)cc2)sc2cc(O)ccc12` [Raloxifene HCl]: the “imaged cell count per well” value turned out to be 30000 ± 2700.
Consider `CCOc1cc(N)c(Cl)cc1C(=O)NCC1CN(Cc2ccc(F)cc2)CCO1` (stereo not given) [Mosapride], for which the “imaged cell count per well” value stood at 21400 ± 4500.
Regarding `Cc1c[nH]c(=O)[nH]c1=O` [Thymine], the “imaged cell count per well” value is 18100 ± 6000.
Consider `CC(C)[N+](C)(CCOC(=O)C1c2ccccc2Oc2ccccc21)C(C)C` [Propantheline bromide], for which the “imaged cell count per well” value was determined as 27400 ± 6600.
Take `O=C1C(N(CO)C(=O)NCO)N(CO)C(=O)N1CO` (stereo not given) [Diazolidinyl urea]: the “imaged cell count per well” value came out at 28900 ± 3300.
`C1CCN2C[C@@H]3C[C@@H](CN4CCCC[C@@H]34)[C@H]2C1` [(-)-Sparteine Sulfate]: the “imaged cell count per well” value was found to be 29700 ± 7000.
Under `CC(=O)N[C@H]1[C@H]([C@H](O)[C@H](O)CO)OC(C(=O)O)=C[C@@H]1NC(=N)N` [Zanamivir] stands 26700 ± 2000; under `COc1c(N2CCNC(C)C2)c(F)cc2c(=O)c(C(=O)O)cn(C3CC3)c12` (stereo not given) [Gatifloxacin], 24000 ± 3000.
In the case of `CN1[C@@H]2CC[C@H]1C[C@@H](OC(c1ccccc1)c1ccccc1)C2` [Benztropine mesylate], the “imaged cell count per well” value was determined as 27800 ± 5700.
`OCc1ccccc1O[C@@H]1O[C@H](CO)[C@@H](O)[C@H](O)[C@H]1O` [Salicin]: the “imaged cell count per well” value is 26200 ± 1100.
For the compound `CCCNC(C)C(=O)Nc1ccccc1C` (stereo not given) [Prilocaine hydrochloride], the “imaged cell count per well” value is 22300 ± 6100.
On to `N[C@@H](C(=O)N[C@@H]1C(=O)N2C(C(=O)O)=C(Cl)CS[C@H]12)c1ccccc1` [Cefaclor], for which the “imaged cell count per well” value was determined as 24000 ± 460.
With `CCCCCCCCN=c1ccn(CCCCCCCCCCn2ccc(=NCCCCCCCC)cc2)cc1` [Octenidine Dihydrochloride], the “imaged cell count per well” value was determined as 1600 ± 620.
`O=C1CCc2ccc(OCCCCN3CCN(c4cccc(Cl)c4Cl)CC3)cc2N1` [Aripiprazole]: the “imaged cell count per well” value was determined as 22300 ± 1900.
Turning to `Clc1ccc(C(Cn2ccnc2)OCc2ccsc2Cl)c(Cl)c1` (stereo not given) [Tioconazole], the “imaged cell count per well” value stood at 3050 ± 680.
As to `C[C@]12CCC(=O)C=C1[C@@H]1C[C@@H]1[C@H]1[C@@H]3[C@@H]4C[C@@H]4[C@@]4(CCC(=O)O4)[C@@]3(C)CC[C@@H]12` [Drospirenone], the “imaged cell count per well” value worked out at 20000 ± 2500.
Regarding `Cc1nnc(NS(=O)(=O)c2ccc(N)cc2)s1` [Sulfamethizole], the “imaged cell count per well” value was determined as 27700 ± 4800.
Under `Nc1nc2[nH]cc(CCc3ccc(C(=O)N[C@@H](CCC(=O)O)C(=O)O)cc3)c2c(=O)[nH]1` [Pemetrexed Disodium Hydrate] stands 8660 ± 3500; under `O=C1[C@H]2CCCC[C@H]2C(=O)N1CCCCN1CCN(c2nsc3ccccc23)CC1` [Perospirone hydrochloride], 24200 ± 6700; under `Nc1ccc(/N=N/c2ccccc2)c(N)n1` [Phenazopyridine HCl], 23300 ± 3300.
Under `Cc1cc(-c2ccc(/N=N/c3ccc4c(S(=O)(=O)O)cc(S(=O)(=O)O)c(N)c4c3O)c(C)c2)ccc1/N=N/c1ccc2c(S(=O)(=O)O)cc(S(=O)(=O)O)c(N)c2c1O` [Evans Blue] stands 8300 ± 1000; under `CCCc1nn(C)c2c(=O)[nH]c(-c3cc(S(=O)(=O)N4CCN(C)CC4)ccc3OCC)nc12` [Sildenafil Citrate], 23700 ± 3200.
Under `C[C@@H](O)[C@H]1C(=O)N2C(C(=O)OCOC(=O)C(C)(C)C)=C(SC3CN(C4=NCCS4)C3)[C@H](C)[C@H]12` [Tebipenem Pivoxil] stands 24700 ± 6200.
As for `C[C@@H](O)[C@H]1C(=O)N2C(C(=O)O)=C(SCCNC=N)C[C@H]12` [Imipenem], the “imaged cell count per well” value stood at 18000 ± 3100.
On to `CCCN(CCc1cccs1)[C@H]1CCc2c(O)cccc2C1` [Rotigotine], for which the “imaged cell count per well” value came to 22500 ± 7100.
Consider `CN1CCc2cc3c(cc2C(=O)Cc2ccc4c(c2C1)OCO4)OCO3` [Protopine], for which the “imaged cell count per well” value stood at 28800 ± 3300.
Regarding `COc1ccc([C@@H]2Sc3ccccc3N(CCN(C)C)C(=O)[C@@H]2OC(C)=O)cc1` [Diltiazem HCl], the “imaged cell count per well” value came out at 22200 ± 4400.
